Source: publication PMC12187018
Results are given in words; binding and its absence hold for the method and conditions named. Binding seen in cells or lysates may run through a third protein. A result given as binding can be weak or reduced; the word gives no strength. For some assays here: Tags and fused reporters may be left off the sequences shown.

T1: Flag-P2X7 (R) (UniProt Q99572)
T1 sequence: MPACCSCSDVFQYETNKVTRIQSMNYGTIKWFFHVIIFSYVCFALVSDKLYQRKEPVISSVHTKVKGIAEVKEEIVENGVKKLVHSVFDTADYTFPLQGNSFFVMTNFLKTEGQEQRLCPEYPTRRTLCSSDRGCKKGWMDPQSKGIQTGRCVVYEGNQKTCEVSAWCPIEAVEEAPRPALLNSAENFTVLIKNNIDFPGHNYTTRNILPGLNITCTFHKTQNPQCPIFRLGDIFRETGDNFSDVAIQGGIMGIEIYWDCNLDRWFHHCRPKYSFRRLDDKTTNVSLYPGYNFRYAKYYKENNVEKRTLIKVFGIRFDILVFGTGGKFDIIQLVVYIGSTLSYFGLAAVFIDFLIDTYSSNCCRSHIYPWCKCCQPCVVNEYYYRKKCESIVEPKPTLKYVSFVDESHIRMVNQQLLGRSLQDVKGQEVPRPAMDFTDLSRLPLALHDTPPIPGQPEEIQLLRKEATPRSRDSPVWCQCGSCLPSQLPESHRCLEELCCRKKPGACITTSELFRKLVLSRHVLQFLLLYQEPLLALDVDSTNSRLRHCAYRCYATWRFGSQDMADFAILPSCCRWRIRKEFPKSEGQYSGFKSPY

B1: P2X7 (R), endogenous in equine macrophages (receptor, UniProt F6Q5L6 1-561)
chain: MPACCSWNDVFQYETNKVTRIQSMNYGTIKWICHLIVFSYVIFALVSDKRYQRKEPLISSVHTKVKGIAEVREEIIESGAKKVVQSVFDTADYTFPLQGNSFFVMTNFLKTEGQEQGLCPEYPTRRTLCSSDRGCKKGWMDPQSKGIQTGRCIVYKGNQKTCEVSAWCPIEAVEEAPRPALLNSAENFTVLIKNNIDFPGHNYTTRNFLPGLNITCTFHKTQNPQCPIFRLGDIFRETGDHFSDVAIQGGIMGIEIYWDCNLDRWFHHCRPKYSFRRLDDKTASESSYPGYNFRYAKYYKENNVEKRTLIKVFGIRFDILVFGTGGKFDIIQLIVFVGSTLSYFGLATLFIDFLINTYSSKFCRSSIYPCCKYCEPCSVNEYYYRKKCESIVEPKPRPSMDFTDLSRLPLSLQDPHVTPGQPEDIQLLSEEVTPRHKDSPHWCQCGNCLPSQLPESHRCLEELCCRKKMGACITTSEPFRKLVLSRRVLQFLLLYREPLLVLDADSTNSQLRHCAYRCYATWRFGSQDLADFAILPSCCRWRIRREFPRSEGQYSGFKSPY

Key:
Flag-P2X7 (R) = molecular target: T1, Flag-P2X7 (R); experiment: co-IP; 293T cells co-transfected with HA-Env (virulent or vaccine) and one Flag-tagged host protein; lysis in 1% Triton X-100, 50 mM Tris-HCl pH 7.4, 150 mM NaCl; anti-Flag or anti-HA magnetic beads overnight; also done with 50 μM KCl (S2 Fig B-C)
[1] = molecular target: EIAV Env of the virulent strain (EIAV_DLV34), in infected macrophages (EIAV, virulent strain EIAV_DLV34); experiment: co-IP; immunoprecipitation with anti-Env antibodies from EIAV-infected equine macrophages; endogenous P2X7 (R), NLRP3 and NEK7 detected by blot

Molecule | binding (Flag-P2X7 (R)) | binding [1]
HA-Env of the virulent EIAV strain (virulent-Env) (EIAV, virulent strain EIAV_DLV34) | binds | 
B1 |  | binds
